# Laboratory results as given in publication PMC12520464.
# Protein sequences, listed by entry. Tags and fused reporters are not part of them.
# UniProt Q09472: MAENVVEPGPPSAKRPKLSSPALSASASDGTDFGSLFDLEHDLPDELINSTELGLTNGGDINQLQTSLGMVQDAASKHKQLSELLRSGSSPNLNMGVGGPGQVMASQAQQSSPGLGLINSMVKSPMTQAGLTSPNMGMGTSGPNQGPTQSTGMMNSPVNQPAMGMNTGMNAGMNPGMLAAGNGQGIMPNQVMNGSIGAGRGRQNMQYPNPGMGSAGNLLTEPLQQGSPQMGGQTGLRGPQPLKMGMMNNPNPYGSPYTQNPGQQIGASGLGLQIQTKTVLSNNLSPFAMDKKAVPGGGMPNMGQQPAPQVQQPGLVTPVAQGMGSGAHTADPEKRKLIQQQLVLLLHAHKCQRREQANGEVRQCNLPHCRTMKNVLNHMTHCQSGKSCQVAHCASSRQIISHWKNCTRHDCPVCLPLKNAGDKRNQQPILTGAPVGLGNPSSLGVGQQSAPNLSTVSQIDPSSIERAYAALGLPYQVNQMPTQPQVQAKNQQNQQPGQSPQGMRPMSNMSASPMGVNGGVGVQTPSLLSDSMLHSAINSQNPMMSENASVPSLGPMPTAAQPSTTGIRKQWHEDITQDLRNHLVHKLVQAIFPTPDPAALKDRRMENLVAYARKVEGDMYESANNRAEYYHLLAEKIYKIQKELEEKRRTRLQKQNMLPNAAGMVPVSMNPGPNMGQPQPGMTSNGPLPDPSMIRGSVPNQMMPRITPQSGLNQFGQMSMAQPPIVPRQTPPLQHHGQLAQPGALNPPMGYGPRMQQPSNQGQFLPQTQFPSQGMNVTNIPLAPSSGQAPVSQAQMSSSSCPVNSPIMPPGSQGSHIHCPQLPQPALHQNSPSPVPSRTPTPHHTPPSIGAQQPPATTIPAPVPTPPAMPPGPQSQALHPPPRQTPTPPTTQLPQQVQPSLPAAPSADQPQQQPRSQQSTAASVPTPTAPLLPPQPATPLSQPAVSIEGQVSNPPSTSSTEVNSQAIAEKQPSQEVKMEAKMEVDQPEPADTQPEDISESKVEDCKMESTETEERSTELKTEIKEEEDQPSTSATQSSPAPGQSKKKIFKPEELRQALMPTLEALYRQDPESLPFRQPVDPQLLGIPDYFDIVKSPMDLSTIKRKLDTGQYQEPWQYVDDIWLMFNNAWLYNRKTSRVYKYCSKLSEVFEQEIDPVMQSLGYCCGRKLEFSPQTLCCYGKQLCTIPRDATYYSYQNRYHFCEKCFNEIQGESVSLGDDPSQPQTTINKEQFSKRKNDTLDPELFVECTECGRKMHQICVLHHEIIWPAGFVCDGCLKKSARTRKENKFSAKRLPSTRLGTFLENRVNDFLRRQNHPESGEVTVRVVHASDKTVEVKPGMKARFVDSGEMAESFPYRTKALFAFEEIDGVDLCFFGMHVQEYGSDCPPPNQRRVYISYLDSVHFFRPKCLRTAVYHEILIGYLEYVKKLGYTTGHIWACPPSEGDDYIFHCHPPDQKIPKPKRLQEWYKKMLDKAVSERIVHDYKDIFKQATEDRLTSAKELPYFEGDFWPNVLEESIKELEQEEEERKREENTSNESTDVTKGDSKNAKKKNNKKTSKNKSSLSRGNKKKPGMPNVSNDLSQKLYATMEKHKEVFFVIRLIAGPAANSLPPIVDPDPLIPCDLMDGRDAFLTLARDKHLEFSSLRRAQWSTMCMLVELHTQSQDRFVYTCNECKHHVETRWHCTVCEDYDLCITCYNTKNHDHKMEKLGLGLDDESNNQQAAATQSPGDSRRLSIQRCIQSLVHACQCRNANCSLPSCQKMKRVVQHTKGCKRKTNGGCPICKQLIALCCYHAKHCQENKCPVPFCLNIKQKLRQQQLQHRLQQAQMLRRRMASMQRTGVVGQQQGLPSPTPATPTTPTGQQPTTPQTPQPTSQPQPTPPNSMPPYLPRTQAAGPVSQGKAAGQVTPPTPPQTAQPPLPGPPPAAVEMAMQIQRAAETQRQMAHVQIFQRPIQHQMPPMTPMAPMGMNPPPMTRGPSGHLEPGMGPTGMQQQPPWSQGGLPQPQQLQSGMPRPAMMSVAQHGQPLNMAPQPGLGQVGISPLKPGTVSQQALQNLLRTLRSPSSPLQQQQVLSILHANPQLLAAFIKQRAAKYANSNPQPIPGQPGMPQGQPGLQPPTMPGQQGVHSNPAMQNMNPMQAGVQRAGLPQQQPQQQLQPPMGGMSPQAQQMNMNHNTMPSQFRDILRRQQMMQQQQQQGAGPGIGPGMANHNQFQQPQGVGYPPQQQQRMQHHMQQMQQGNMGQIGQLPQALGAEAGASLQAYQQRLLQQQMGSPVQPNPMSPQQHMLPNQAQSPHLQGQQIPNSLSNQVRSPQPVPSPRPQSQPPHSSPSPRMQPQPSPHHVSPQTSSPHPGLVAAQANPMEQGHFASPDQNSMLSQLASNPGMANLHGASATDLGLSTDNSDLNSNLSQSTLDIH
# Residue numbers refer to the chain shown, from its start. Results are given in words; binding and its absence hold for the method and conditions named. In cells and extracts the contact can be indirect. Some binding calls cover weakened binding; strength is not graded here. For part of these data: Tags and fused reporters may be left off the sequences shown.
# Tests used:
# [1] = target: T1, Flag-ARG1 (full-length human arginase-1, pcDNA3.1-Flag) (human) (UniProt P05089); assay: co-IP; exogenous co-IP of ARG1 and P300 in HCT116 and RKO cells; IP lysis buffer, primary antibody and Protein A/G magnetic beads overnight at 4 °C
# T1 sequence: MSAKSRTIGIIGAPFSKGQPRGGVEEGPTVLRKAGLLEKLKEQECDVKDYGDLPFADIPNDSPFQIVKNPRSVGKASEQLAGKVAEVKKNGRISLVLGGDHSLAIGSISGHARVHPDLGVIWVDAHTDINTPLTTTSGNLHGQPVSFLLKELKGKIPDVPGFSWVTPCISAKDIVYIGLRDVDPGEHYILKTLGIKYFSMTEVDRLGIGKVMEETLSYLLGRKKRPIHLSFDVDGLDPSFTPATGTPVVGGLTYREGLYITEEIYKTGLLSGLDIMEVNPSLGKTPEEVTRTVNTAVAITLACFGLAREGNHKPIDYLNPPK
# [2] = target: T2, ARG1 (arginase-1), endogenous (human (endogenous in HCT116 and RKO)) (UniProt P05089); assay: co-IP; endogenous co-IP of ARG1 and P300 in HCT116 and RKO cells; IP lysis buffer, primary antibody and Protein A/G magnetic beads overnight at 4 °C
# T2 sequence: T1 sequence
# [3] = target: T2, ARG1 (arginase-1), endogenous (human (endogenous in HCT116 and RKO)); assay: co-IP; lysates of HCT116 and RKO cells treated with or without BHB (48 h) or BHB + A485; immunoprecipitated with anti-SLC3A2 or anti-ARG1 antibody
# [4] = target: T2, ARG1 (arginase-1), endogenous (human (endogenous in HCT116 and RKO)); assay: co-IP; tumour tissue lysates (HCT116 xenografts in BALB/c nude mice) of the Saline and BHB groups, immunoprecipitated with anti-ARG1 antibody
# Flag-ARG1^K39R (human) = target: T3, Flag-ARG1^K39R (human) (UniProt P05089); assay: co-IP; HCT116 cells transfected with Flag-ARG1 WT, K39R or K313R for 24 h, then BHB for 48 h; lysates immunoprecipitated with anti-ARG1 antibody
# T3 sequence: T1 sequence with K39R
# [5] = target: T1, Flag-ARG1 (full-length human arginase-1, pcDNA3.1-Flag) (human); assay: as above
substance,measurement,setting,value
HA-P300 (from UniProt Q09472 1-2414),binding,[1],binds
"P300, endogenous (from UniProt Q09472 1-2414)",binding,[2],binds
"solute carrier family 3 member 2 (SLC3A2), endogenous (from UniProt P08195 1-529)",binding,[3],binds
same,binding,[4],binds
same,binding,Flag-ARG1^K39R (human),binds
same,binding,[5],binds
